From PMC13035816
No constants are given. Whether binding was seen depends on the method and setting. In cells and extracts the contact can be indirect. Some results given as binding are weak or reduced against the parent protein; the word gives no strength. For part of these data: Tags and fused reporters may be left off the sequences shown. One block for each binder: values may come before it.

Tests used:
HA-PPARα = target: T1, HA-PPARα (UniProt Q07869); test: co-IP; HEK293 cells transiently transfected, lysates after 48 h; immunoprecipitated with GFP antibody (RNF128-GFP constructs with HA-PPARα) or HA antibody (HA-PPARα constructs with Flag-RNF128); immunoblot
T1 sequence: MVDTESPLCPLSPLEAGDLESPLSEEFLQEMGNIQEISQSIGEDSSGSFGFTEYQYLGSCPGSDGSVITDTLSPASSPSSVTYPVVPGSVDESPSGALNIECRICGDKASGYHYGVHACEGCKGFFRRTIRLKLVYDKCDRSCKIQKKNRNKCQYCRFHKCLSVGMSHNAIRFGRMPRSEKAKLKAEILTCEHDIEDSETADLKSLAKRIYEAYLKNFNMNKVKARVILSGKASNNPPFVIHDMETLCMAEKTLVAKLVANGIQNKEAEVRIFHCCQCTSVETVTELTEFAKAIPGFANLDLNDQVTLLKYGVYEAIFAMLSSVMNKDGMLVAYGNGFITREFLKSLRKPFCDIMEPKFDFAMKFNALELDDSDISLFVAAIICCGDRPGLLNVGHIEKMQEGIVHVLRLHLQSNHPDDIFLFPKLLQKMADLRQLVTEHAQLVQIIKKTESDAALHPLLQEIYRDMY

HA-PPARα_(1–278) = target: T2, HA-PPARα_(1–278) (UniProt Q07869); test: as above
T2 sequence: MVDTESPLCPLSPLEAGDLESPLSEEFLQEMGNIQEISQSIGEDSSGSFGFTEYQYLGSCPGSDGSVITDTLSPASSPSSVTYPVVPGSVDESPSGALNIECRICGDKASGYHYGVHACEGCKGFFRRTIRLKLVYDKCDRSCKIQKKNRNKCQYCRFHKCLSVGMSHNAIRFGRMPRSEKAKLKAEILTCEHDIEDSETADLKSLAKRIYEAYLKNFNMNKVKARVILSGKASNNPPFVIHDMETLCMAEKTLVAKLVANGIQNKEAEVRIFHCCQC

[1] = target: T3, Peroxisome proliferator-activated receptor alpha (endogenous, AML12 cells) (mouse (endogenous in AML12)) (UniProt P23204); test: co-IP; endogenous proteins in AML12 cell extracts; immunoprecipitated with anti-RNF128, anti-PPARα or rabbit IgG at 4 °C overnight in lysis buffer (50 mM Tris pH 8.0, 5 mM NaCl, 0.5% NP-40), Dynabeads Protein G, washes with SNNTE buffer (0.5 M NaCl, 1% NP-40); blots with anti-RNF128 and anti-PPARα; during fasting a significant decrease of the interaction (Fig. S7)
T3 sequence: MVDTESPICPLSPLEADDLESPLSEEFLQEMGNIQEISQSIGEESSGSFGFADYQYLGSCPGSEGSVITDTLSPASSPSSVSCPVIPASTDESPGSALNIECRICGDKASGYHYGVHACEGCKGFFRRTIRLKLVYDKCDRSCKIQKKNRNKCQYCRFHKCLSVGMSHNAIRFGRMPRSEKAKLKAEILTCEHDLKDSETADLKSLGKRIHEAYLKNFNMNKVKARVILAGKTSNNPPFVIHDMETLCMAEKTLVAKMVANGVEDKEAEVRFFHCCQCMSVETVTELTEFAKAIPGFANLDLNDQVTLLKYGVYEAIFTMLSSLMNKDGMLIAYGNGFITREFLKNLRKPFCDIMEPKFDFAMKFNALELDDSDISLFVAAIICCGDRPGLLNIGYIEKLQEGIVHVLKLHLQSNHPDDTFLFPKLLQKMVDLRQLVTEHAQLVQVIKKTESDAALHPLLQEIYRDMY

RNF128-GFP = target: T4, RNF128-GFP (UniProt Q8TEB7); test: co-IP; HEK293 cells transiently transfected, lysates after 48 h; immunoprecipitated with GFP antibody (RNF128-GFP constructs with HA-PPARα) or HA antibody (HA-PPARα constructs with Flag-RNF128); immunoblot
T4 sequence: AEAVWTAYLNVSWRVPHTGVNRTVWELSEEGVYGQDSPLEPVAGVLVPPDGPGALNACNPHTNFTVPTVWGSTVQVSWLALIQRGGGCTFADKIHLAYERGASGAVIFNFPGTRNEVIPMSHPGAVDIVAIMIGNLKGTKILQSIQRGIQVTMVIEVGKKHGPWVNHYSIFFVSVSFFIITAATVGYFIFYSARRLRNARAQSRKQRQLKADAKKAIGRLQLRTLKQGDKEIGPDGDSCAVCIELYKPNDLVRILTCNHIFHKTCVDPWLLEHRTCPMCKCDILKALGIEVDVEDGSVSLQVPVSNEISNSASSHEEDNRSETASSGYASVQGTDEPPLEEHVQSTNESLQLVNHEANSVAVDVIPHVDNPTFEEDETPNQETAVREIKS

RNF128_(1–228)-GFP = target: T5, RNF128_(1–228)-GFP (UniProt Q8TEB7); test: as above
T5 sequence: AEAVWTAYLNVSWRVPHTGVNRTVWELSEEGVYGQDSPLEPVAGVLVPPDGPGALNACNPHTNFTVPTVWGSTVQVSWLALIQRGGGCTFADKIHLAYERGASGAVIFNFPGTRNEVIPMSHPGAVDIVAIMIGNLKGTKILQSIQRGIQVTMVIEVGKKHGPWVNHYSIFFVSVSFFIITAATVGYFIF

[2] = target: T6, RING finger protein 128 (endogenous, AML12 cells) (mouse (endogenous in AML12)) (UniProt Q9D304); test: co-IP; endogenous proteins in AML12 cell extracts; immunoprecipitated with anti-RNF128, anti-PPARα or rabbit IgG at 4 °C overnight in lysis buffer (50 mM Tris pH 8.0, 5 mM NaCl, 0.5% NP-40), Dynabeads Protein G, washes with SNNTE buffer (0.5 M NaCl, 1% NP-40); blots with anti-RNF128 and anti-PPARα; during fasting a significant decrease of the interaction (Fig. S7)
T6 sequence: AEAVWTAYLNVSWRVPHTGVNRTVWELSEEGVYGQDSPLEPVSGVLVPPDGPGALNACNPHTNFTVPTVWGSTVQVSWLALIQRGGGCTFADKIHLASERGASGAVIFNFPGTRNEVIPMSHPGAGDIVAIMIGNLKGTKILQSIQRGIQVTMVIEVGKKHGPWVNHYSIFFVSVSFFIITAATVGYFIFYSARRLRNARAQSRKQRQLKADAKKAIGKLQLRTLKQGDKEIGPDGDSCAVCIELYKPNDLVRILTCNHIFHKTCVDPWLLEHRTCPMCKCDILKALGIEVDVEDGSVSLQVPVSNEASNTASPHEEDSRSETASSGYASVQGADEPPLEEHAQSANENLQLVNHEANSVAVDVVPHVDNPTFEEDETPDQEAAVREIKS

binding [1]: binds
B2: RING finger protein 128 (endogenous, AML12 cells) (protein, UniProt Q9D304 39-428)
chain: AEAVWTAYLNVSWRVPHTGVNRTVWELSEEGVYGQDSPLEPVSGVLVPPDGPGALNACNPHTNFTVPTVWGSTVQVSWLALIQRGGGCTFADKIHLASERGASGAVIFNFPGTRNEVIPMSHPGAGDIVAIMIGNLKGTKILQSIQRGIQVTMVIEVGKKHGPWVNHYSIFFVSVSFFIITAATVGYFIFYSARRLRNARAQSRKQRQLKADAKKAIGKLQLRTLKQGDKEIGPDGDSCAVCIELYKPNDLVRILTCNHIFHKTCVDPWLLEHRTCPMCKCDILKALGIEVDVEDGSVSLQVPVSNEASNTASPHEEDSRSETASSGYASVQGADEPPLEEHAQSANENLQLVNHEANSVAVDVVPHVDNPTFEEDETPDQEAAVREIKS

binding (RNF128-GFP): binds
binding (RNF128_(1–228)-GFP): binds
B3: HA-PPARα (protein, UniProt Q07869 1-468)
chain: MVDTESPLCPLSPLEAGDLESPLSEEFLQEMGNIQEISQSIGEDSSGSFGFTEYQYLGSCPGSDGSVITDTLSPASSPSSVTYPVVPGSVDESPSGALNIECRICGDKASGYHYGVHACEGCKGFFRRTIRLKLVYDKCDRSCKIQKKNRNKCQYCRFHKCLSVGMSHNAIRFGRMPRSEKAKLKAEILTCEHDIEDSETADLKSLAKRIYEAYLKNFNMNKVKARVILSGKASNNPPFVIHDMETLCMAEKTLVAKLVANGIQNKEAEVRIFHCCQCTSVETVTELTEFAKAIPGFANLDLNDQVTLLKYGVYEAIFAMLSSVMNKDGMLVAYGNGFITREFLKSLRKPFCDIMEPKFDFAMKFNALELDDSDISLFVAAIICCGDRPGLLNVGHIEKMQEGIVHVLRLHLQSNHPDDIFLFPKLLQKMADLRQLVTEHAQLVQIIKKTESDAALHPLLQEIYRDMY

Continued, binder first:

B1: Flag-RNF128 (protein, UniProt Q8TEB7 39-428)
chain: AEAVWTAYLNVSWRVPHTGVNRTVWELSEEGVYGQDSPLEPVAGVLVPPDGPGALNACNPHTNFTVPTVWGSTVQVSWLALIQRGGGCTFADKIHLAYERGASGAVIFNFPGTRNEVIPMSHPGAVDIVAIMIGNLKGTKILQSIQRGIQVTMVIEVGKKHGPWVNHYSIFFVSVSFFIITAATVGYFIFYSARRLRNARAQSRKQRQLKADAKKAIGRLQLRTLKQGDKEIGPDGDSCAVCIELYKPNDLVRILTCNHIFHKTCVDPWLLEHRTCPMCKCDILKALGIEVDVEDGSVSLQVPVSNEISNSASSHEEDNRSETASSGYASVQGTDEPPLEEHVQSTNESLQLVNHEANSVAVDVIPHVDNPTFEEDETPNQETAVREIKS
binding (HA-PPARα): binds
binding (HA-PPARα_(1–278)): binds

B4: Peroxisome proliferator-activated receptor alpha (endogenous, AML12 cells) (protein, UniProt P23204 1-468)
chain: MVDTESPICPLSPLEADDLESPLSEEFLQEMGNIQEISQSIGEESSGSFGFADYQYLGSCPGSEGSVITDTLSPASSPSSVSCPVIPASTDESPGSALNIECRICGDKASGYHYGVHACEGCKGFFRRTIRLKLVYDKCDRSCKIQKKNRNKCQYCRFHKCLSVGMSHNAIRFGRMPRSEKAKLKAEILTCEHDLKDSETADLKSLGKRIHEAYLKNFNMNKVKARVILAGKTSNNPPFVIHDMETLCMAEKTLVAKMVANGVEDKEAEVRFFHCCQCMSVETVTELTEFAKAIPGFANLDLNDQVTLLKYGVYEAIFTMLSSLMNKDGMLIAYGNGFITREFLKNLRKPFCDIMEPKFDFAMKFNALELDDSDISLFVAAIICCGDRPGLLNIGYIEKLQEGIVHVLKLHLQSNHPDDTFLFPKLLQKMVDLRQLVTEHAQLVQVIKKTESDAALHPLLQEIYRDMY
binding [2]: binds
